From doi:10.1101/2023.03.10.532066

Target: T1, GLK2 (Arabidopsis thaliana) (UniProt Q9FFH0)
T1 sequence (looked up, limits assumed): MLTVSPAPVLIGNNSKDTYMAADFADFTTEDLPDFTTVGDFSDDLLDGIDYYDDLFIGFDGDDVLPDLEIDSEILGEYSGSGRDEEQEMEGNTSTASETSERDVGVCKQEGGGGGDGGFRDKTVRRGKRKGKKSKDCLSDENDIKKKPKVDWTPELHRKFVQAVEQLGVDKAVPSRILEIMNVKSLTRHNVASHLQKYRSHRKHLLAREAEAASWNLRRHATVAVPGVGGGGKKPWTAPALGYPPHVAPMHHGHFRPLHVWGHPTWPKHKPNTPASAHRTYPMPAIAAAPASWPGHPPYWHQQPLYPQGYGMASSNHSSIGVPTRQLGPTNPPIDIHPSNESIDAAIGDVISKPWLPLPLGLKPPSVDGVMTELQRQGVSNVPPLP
Assay: EMSA

ATACCAACACTGATTCTGATTCTGATTCTTCATAGAAGAAGAGAGCCAC (double strand) [DFR-probeD (pDFR-D-EMSA)]
binding result: binds

GCCCATATAGTAGTAATCTTTTTGACCAATCAGTCAACCCAACCATCCTCTCCCGT (double strand) [LDOX-probeC (pLDOX-C-EMSA)]
binding result: binds

ATTCTTCATCATTCAAGATTGGATTTCCAGAAACATAAGCCATGGAAGCTTCCAAGAATCTTTGTTCATCGGAAC (double strand) [LDOX-probeB (pLDOX-B-EMSA)]
binding result: binds

AGTAGTGGCACACAAAGTCACAACTAGAATCGTCGAGAGAAGAGCTTGGATCTTAC (double strand) [UF3GT-probeA (pUF3GT-A-EMSA)]
binding result: binds

CACACACCATTCATCAGGACACTCACCAATCTGATCCGTTAAAGGTTTATGTATTT (double strand) [UF3GT-probeB (pUF3GT-B-EMSA)]
binding result: binds

TCCAGCGTAAGCAAGAACGAGATTGGCACCACCTTCGCCTCTGTAAATCCAATCTGATGCATCTTTCTCCTCCA (double strand) [DFR-probeF (pDFR-F-EMSA)]
binding result: binds

Construct, isoform or probe ends are uncertain for at least one entry. At least one verdict was read from the data and is not stated in words by the source. Where a protein sequence is shown, tags need not be part of it.
